Reference: publication PMC7824358, “The Influence of the Mixed DPC:SDS Micelle on the Structure and Oligomerization Process of the Human Cystatin C” (Membranes, 2020)
These are yes or no findings as the source states them, for the method shown. Some entries that bind do so weakly or less than the wild type.

Target: human cystatin C (hCC) wild-type (human) (UniProt P01034)
Assay: SEC; analytical gel filtration, Superdex 75 PC 3.2/30, eluted with PBS; hCC WT monomer 30 μM in PBS incubated 24 h at 37 °C in DPC solution; monomer to dimer; both purified

binding: binds weakly
B1: human cystatin C (hCC) wild-type (natural protein, UniProt P01034 27-146, looked up)
chain: SSPGKPPRLVGGPMDASVEEEGVRRALDFAVGEYNKASNDMYHSRALQVVRARKQIVAGVNYFLDVELGRTTCTKTQPNLDNCPFHDQPHLKRKAFCSFQIYAVPWQGTMTLSKSTCQDA
notes: human cystatin C, expressed from the pHD313 vector behind the E. coli OmpA signal peptide; Used as a monomer sample and as a dimer sample made by incubation at pH 4.0 and separated by SEC; also called hCC WT; WT
